Measured values as given in PMC11213338.

Columns and labels:
[1] = target: GST-γb_(1-85) (barley stripe mosaic virus (ND18 strain)); experiment: pull-down; GST pull-down: purified GST-tag protein with His-tag protein in 50 mM Tris-HCl pH 6.8, 500 mM NaCl, 1.5% glycerol, 0.6% Triton-X 100, 0.1% Tween 20, 3 h at 4°C; with or without 10 μg RNaseA, Zn^2+ 2-200 μM, 20 μM other divalent cations, or EDTA (200 μM in Fig 4D and 4E); blots with anti-GST or anti-His; both purified
[2] = target: GST-γb (barley stripe mosaic virus (ND18 strain)); experiment: as above

B1: CP-His (protein, UniProt P04866 1-198)
chain: MPNVSLTAKGGGHYIEDQWDTQVVEAGVFDDWWVHVEAWNKFLDNLRGINFSVASSRSQVAEYLAALDRDLPADVDRRFAGARGQIGSPNYLPAPKFFRLDKRTIAELTRLSRLTDQPHNNRDIELNRAKRATTNPSPPAQAPSENLTLRDVQPLKDSALHYQYVLIDLQSARLPVYTRKTFERELALEWIIPDAEEA
B1 was tested, and the binding [1] was “binds” and the binding [2] was “binds”.

No constants are given. Whether binding was seen depends on the method and setting. Binding can be weak; no strength is given. Where a sequence is shown, tags or fusion partners need not be part of it.
